# US10883116B2, “Transduction buffer” (Koninklijke Nederlandse Akademie van Wetenschappen, priority 2013, dated 2021)
# Some entries share one result that the patent states for a list of compounds. At least one compound was matched to its structure with a doubt left.
# System: murine embryonic fibroblasts (MEFs)
# Assay: β-Lactamase protein transduction assay (CCF2-AM), protocol 3/700
# Conditions: 3 hours, 1 μM β-lactamase, 700 mOsm/Kg NaCl, 25 mM compound, 30 mM Glycerol, 15 mM Glycine
# Text: To further characterize the protein transduction process we analyzed the effect of time, osmolality, transduction compound concentration and protein concentration on the transduction process. To this end, we set up a β-Lactamase protein transduction assay and measured intracellular β-Lactamase activity using CCF2-AM, an intracellular fluorescent β-Lactamase substrate that changes emission wavelength when cleaved by the enzyme (FIG. 3A). […] While we used the immortalized COS7 cell line in our initial studies, we wanted to know if the compound-mediated protein transduction would also allow the transduction of protein into primary cells. We therefore transduced murine embryonic fibroblasts (MEFs) with β-Lactamase (1 μM final concentration), using NaCl-adjusted hypertonic media (700 mOsm/Kg) and 25 mM NDSB201. β-Lactamase activity was set at 1 at the start of the experiment and relative intracellular β-Lactamase activity was measured as a function of time (FIG. 3B, bars). As a control, β-Lactamase transduction was measured in isotonic media in the presence of 25 mM NSDB201 (FIG. 3B, open circles).
# β-lactamase transduction was performed using the 3/700 protocol above in murine embryonic fibroblasts (MEFs). […] Subsequently, cells were washed once with phenol-red-free DMEM. β-lactamase activity was measured using the CCF2-AM kit following the manufacturer's instructions. […]
smiles,measurement,value
CCC(C)(C)CCCS(=O)(=O)O [compound 07],β-lactamase transduction efficiency relative to reference compound #1 (NDSB201 set at 100%),less than 30%
